No constants are given. Whether binding was seen depends on the method and setting. Binding seen in cells or lysates may run through a third protein. Some entries that bind do so weakly or less than the wild type. Sequences can lack the tags named with a protein. Blank lines part the entries; values can stand above or below the binder they belong to.
Key:
MBP-COP1 (Arabidopsis) = target: T1, MBP-COP1 (Arabidopsis) (UniProt P43254); experiment: pull-down
T1 sequence: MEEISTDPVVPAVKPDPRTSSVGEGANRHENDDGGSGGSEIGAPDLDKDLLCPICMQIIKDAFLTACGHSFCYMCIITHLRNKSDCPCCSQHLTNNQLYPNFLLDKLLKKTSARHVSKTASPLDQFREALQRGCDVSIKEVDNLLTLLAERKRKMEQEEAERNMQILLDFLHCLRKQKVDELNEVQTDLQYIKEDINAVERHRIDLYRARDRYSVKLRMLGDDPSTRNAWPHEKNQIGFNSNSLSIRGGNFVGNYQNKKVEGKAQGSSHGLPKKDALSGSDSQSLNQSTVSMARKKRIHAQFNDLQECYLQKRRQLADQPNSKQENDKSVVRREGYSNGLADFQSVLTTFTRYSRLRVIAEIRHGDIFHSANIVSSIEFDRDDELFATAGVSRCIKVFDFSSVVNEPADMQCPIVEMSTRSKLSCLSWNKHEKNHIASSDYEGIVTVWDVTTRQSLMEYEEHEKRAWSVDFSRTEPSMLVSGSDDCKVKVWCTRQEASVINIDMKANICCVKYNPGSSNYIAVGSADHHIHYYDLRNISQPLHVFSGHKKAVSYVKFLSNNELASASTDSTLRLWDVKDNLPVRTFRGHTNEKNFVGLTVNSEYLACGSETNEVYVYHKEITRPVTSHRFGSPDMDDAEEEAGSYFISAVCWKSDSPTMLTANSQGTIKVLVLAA

[1] = target: T2, MBP-HY5 (Arabidopsis), O24646; experiment: pull-down; conditions: remark: other sources report otherwise
T2 chain: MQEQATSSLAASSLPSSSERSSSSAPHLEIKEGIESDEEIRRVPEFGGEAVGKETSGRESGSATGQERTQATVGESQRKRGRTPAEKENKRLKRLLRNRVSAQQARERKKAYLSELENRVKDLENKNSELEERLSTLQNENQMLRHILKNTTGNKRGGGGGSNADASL

binding (MBP-COP1 (Arabidopsis)): binds
B1: MYC-DET1 (protein, UniProt P48732 1-543)
chain: MFTSGNVTARVFERQIRTPPPGASVNRARHFYENLVPSYTLYDVESPDHCFRKFTEDGLFLISFSRNHQELIVYRPSWLTYSTTDDSTTTLPPLPRRASKFDSFFTQLYSVNLASSNELICKDFFLYHQTRRFGLFATSTAQIHDSSSPSNDAVPGVPSIDKITFVLLRLDDGVVLDERVFLHDFVNLAHNMGVFLYDDLLAILSLRYQRIHLLQIRDSGHLVDARAIGYFCREDDELFLNSSSQAMMSQDKSKQQSLSGSKEDDTGENGLRHSLSQPSGSNSFLSGVKQRLLSFIFREIWNEESDNVMRVQSLKKKFYFHFQDYVDLIIWKVQFLDRQHLLIKFGSVDGGVTRSADHHPAFFAVYNMETTDIVAFYQNSAEDLYQLFEQFSDHFTVSSSTPFMNFVTSHSNNVYALEQLKYTKNKSNSFSQFVKKMLLSLPFSCQSQSPSPYFDQSLFRFDEKLISAADRHRQSSDNPIKFISRRQPQTLKFKIKPGPECGTADGRSKKICSFLFHPHLPLAISIQQTLFMPPSVVNIHFRR

binding [1]: binds
B2: MYC-DET1, P48732 1-543 (protein)
chain: B1 chain
